Experimental data from PubChem BioAssay AID493014 (National Center for Advancing Translational Sciences (NCATS), 2011).
Hit rate of the full screen: of about 340,000 compounds, about 170 (0.05%) were called active. Inconclusive means that the source gave no clear call. Such entries were picked first, then a sample of the others. Calls come from the whole dose curve; as a rule, active = well fitted inhibition curve with a large enough effect in the signal ratio, with a control signal flat (not every such curve was filed as active); inconclusive = small, poorly fitted or top-dose-only effect, or effect the other way, or a change in a side signal; inactive = flat fitted curve, though single readings scatter; the % refers to the signal ratio. Where the call is inconclusive, the potency comes from a doubtful curve fit.

Assay: qHTS Assay to Find Inhibitors of Chronic Active B-Cell Receptor Signaling;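 for activity change, negative = inhibition: plate controls were basal doxycycline-induced cells for no effect and cells given 10 µM MG132 for full effect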
Conditions: ABC-DLBCL IkBa-CBG/CBR reporter, luminescence ratio (green luciferase fused to IkBa over red control in TMD8 lymphoma cells), 4 h; activity change, negative = inhibition: at 46.1 µM (top of the series) unless noted
How it was run: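 Cell line TMD8 (human ABC DLBCL), stably expressing tet-inducible CBG68-IkBa fusion and CBR; IMDM/0.5% FBS; cpd up to 46 uM; dox induction, 4 h, 37C/5% CO2; dual luminescence; green/red ratio; MG132 control.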
Potency is the fitted concentration of half-maximal effect.

SMILES | activity change, negative = inhibition | Potency
O=C(CC(C(=O)O)C1CCCO1)NCc1ccccc1 (centres undefined) | inconclusive: 17.5% | –
CCNc1ccc2c(Cl)cc(=O)oc2c1 | – | inconclusive: 23.1 µM [falling, partial curve]
O=C(Cn1cnc2c(nnn2-c2ccc(F)cc2)c1=O)NCC1CCCO1 (centres undefined) | – | inconclusive: 2.31 µM [rising, partial curve, poor fit]
COc1ccc(C2CC(=O)N(CCCN(C)CCc3ccc(OC)c(OC)c3)C2)cc1 (centres undefined) | inconclusive: 4.71% | –
CCN(C(=O)CSc1nc2n[nH]c(C)c2c(=N)n1-c1ccc(Cl)c(C)c1)c1cccc(C)c1 | inactive: 10% | –
CCc1ccc2nc(SCC(=O)NCC3CCCO3)c(C#N)cc2c1 (centres undefined) | inconclusive: 5.74% | –
CCOC(=O)C1(C(F)(F)F)N=C(c2cccnc2)OC(N2CCOCC2)=N1 (centres undefined) | inactive: -5.02% | –
COc1ccccc1NC(=O)C(CCS(C)(=O)=O)N1C(=O)c2ccccc2C1=O (centres undefined) | inconclusive: 6.02% | –
CCC1=Nc2cc(C(=O)NCc3cccnc3)ccc2Sc2ccc(C)cc21 | – | inconclusive: 10 µM [falling, partial curve, poor fit]
COc1cc2oc(=O)c(Br)c(C)c2c(OC)c1OC | inconclusive: -0.208% | –
Cc1cc(/C=N/Nc2ncnc(N)c2[N+](=O)[O-])c(C)n1-c1ccccc1 | – | inconclusive: 7.08 µM [falling, partial curve]
Cc1ccc(SC(C)C(=O)O/N=C(\N)c2ccncc2)cc1 (centres undefined) | inconclusive: 0.818% | –
CC(C)CCn1c(SCCc2ccccc2)nc2c1c(=O)[nH]c(=O)n2C | inconclusive: -6.28% | –
CCN(CC)Cc1c(C(=O)N/N=C/c2ccncc2)nnn1-c1nonc1N | inactive: 1.34% | –
COc1ccc(C(=O)NCc2cc(C)nc3ccccc23)cc1 | – | inconclusive: 17.8 µM [falling, partial curve, poor fit]
COC(=O)c1cnn2c(C)c(Cc3c(C)cc(C)cc3C)c(C)nc12 | inconclusive: 0.31% | –
O=C(CCc1nc2ccccc2[nH]1)Nc1ccc2c(c1)OCCO2 | – | inconclusive: 20.6 µM [falling, single point]
C/C(=N\NC(=O)c1cc(-c2ccncc2)nc2ccccc12)c1ccc(N2CCOCC2)cc1 | – | inconclusive: 11.2 µM [falling, single point]
Cc1ccc(Sc2c(C)[nH]n(C(C)(C)C)c2=O)cc1 | inactive: 13.3% | –
Cc1c(C(=O)Nc2ccccc2)sc2nc3n(c(=O)c12)CCCCC3 | inconclusive: 2.28% | –

Individual results from the entries so far.
`CC(C)CCn1c(SCCc2ccccc2)nc2c1c(=O)[nH]c(=O)n2C` | activity change, negative = inhibition: inconclusive: -6.28%
`O=C(Cn1cnc2c(nnn2-c2ccc(F)cc2)c1=O)NCC1CCCO1` (centres undefined) | Potency: inconclusive: 2.31 µM [rising, partial curve, poor fit]

The listing continues.

SMILES | activity change, negative = inhibition | Potency
COc1ccc(S(=O)(=O)Nc2c(NC3CCCCC3)c3ccccc3oc2=O)cc1 | – | inconclusive: 12.6 µM [falling, partial curve]
COc1ccc(-c2nc(-c3ccncc3)no2)cc1 | inconclusive: 3.27% | –
CCOc1ccc(Br)cc1C1C(C(=O)OC)=C(N)Oc2cc(N(C)C)ccc21 (centres undefined) | inconclusive: -6.01% | –
Cc1nc2ccccc2c2nc3ccccc3n12 | inconclusive: 15.3% | –
O=C(CNC(=O)c1cccs1)NC1=NCCS1 | inconclusive: -25.4% | –
O=C1N(CCCCN2C(=O)C3(OCCO3)c3ccccc32)c2ccccc2C12OCCO2 | inconclusive: 13.8% | –
O=C1NC(=Nc2ccc(F)cc2)SC1Cc1ccc(F)cc1 (centres undefined) | – | inconclusive: 10 µM [falling, partial curve]
CCc1ccc2nc(N3C(=O)C(O)=C(C(=O)c4ccco4)C3c3cccs3)sc2c1 (centres undefined) | – | inconclusive: 20.6 µM [falling, partial curve]
COc1ccc(/C=N\NC(=O)CCN2CCN(c3ccccc3)CC2)cc1OC | inactive: -5.14% | –
CCOc1ccc(NC(=O)c2cc(C3CC3)nc3c2cnn3C(C)C)cc1OC | inconclusive: -2.41% | –
Brc1ccc(-c2cnc(-c3cccs3)o2)cc1 | inconclusive: -1.18% | –
O=C(O)C1C(c2ccccc2)C(C(=O)Oc2ccccc2)C1c1ccccc1 (centres undefined) | – | inconclusive: 29.1 µM [falling, single point]
COC(=O)COc1ccc(/C=N/NC(=O)c2ccc(N(Cc3ccccc3)S(C)(=O)=O)cc2)cc1 | – | inconclusive: 29.1 µM [falling, single point]
O=C(NC(=S)N(CCO)Cc1ccccc1)c1cc(Br)ccc1Cl | – | inconclusive: 35.5 µM [falling, single point]
CC(=O)c1cc(-c2ccccc2)[nH]c1N1CCCC1 | inconclusive: -20.1% | –
O=C(c1ccc(Br)cc1)N1CCN(S(=O)(=O)c2ccccc2)CC1 | inconclusive: -14.2% | –
CC(=O)Nc1ccc(NS(=O)(=O)c2c(Cl)cccc2Cl)cc1 | inconclusive: 7.44% | –
CCCCCCCCCn1ccc(=N)cc1 | inconclusive: 7.99% | –
CC(OC(=O)Cn1cc(C(F)(F)F)ccc1=O)C(=O)NC(C)c1ccc(Cl)cc1Cl (centres undefined) | inconclusive: -0.121% | –
